# Laboratory results published in the supplement of paper PMC5949888.
# ± gives the standard deviation of the averaged measurements. Most values lie at the floor of the assay. Slopes are relative: functional sequences can read slightly below zero.
# Test system: Saccharomyces cerevisiae PS128 hsf1 delta, HSF1(1-493) fusion
# Assay: growth estimate (transactivation domain function in HSF1 fusion, heat-shock survival) (a.u. (slope of normalised read count over time)); higher = stronger growth at 37°C, i.e. more transactivation activity
# Conditions: library: random library
row,Substance,growth estimate
1,DEHA,< -0.25
2,PEPIRYSHELR,< -0.25
3,GRRIFTPCIVDVDDPVEAVK,< -0.25
4,IALVTGS,-0.25
5,ILRGV,< -0.25
6,MRGGIVRGR,< -0.25
7,LETSEMLLNKRRDYTPGVSA,< -0.25
8,RHGPWIGQRRFVSVQLAEIH,< -0.25
9,TALWVFPCPLCNRILGSI,< -0.25
10,IWMRSHWDLHGTLLYRCSVK,< -0.25
11,NKLRSVPSVGSVFLAHCWLH,< -0.25
12,WGSRSILSLRPYKIRTARTH,< -0.25
13,ECRSQLLVSSRSGLNAKL,< -0.25
14,LSGMTGACVLQTR,< -0.25
15,QLKSNHNWLAE,< -0.25
16,VVNAPKWPGIRISGREEPGS,< -0.25
17,VVSCALRHWEFSVAP,< -0.25
18,RVRSKWNLDLIHFGNRTPRA,< -0.25
19,LPLNFQTYWSKETSFKFVSA,< -0.25
20,DKLQQEHIVPLRPSNPKIQT,< -0.25
21,RKRATGSRNNWA,< -0.25
22,SVLLTMG,< -0.25
23,DSCIRRHMSLEGWSVLRVTS,< -0.25
24,FHPLHMGLKFAGALAPQNAA,< -0.25
25,ESISRYIKRLRGDQT,-0.246

row,Substance,growth estimate
1,ELSIAMRWGGYGCRAHGMYH,-0.246
2,GSLR,< -0.25
3,GPGNHLGLPPFRGRGSRDAQ,< -0.25
4,CLTDADELGRRCVCFQNSGG,< -0.25
5,PPRYQRVFVRTIWASETRLI,< -0.25
6,SGLNRDWIGQI,< -0.25
7,NEFLVKPE,< -0.25
8,YLVTGIFSTRDRIRGVWAKI,-0.245
9,LGDLLTQRGNNETKWPVGTE,-0.185
10,RRR,< -0.25
11,LGRPGSYVARGRRTYVLDVL,-0.243
12,GFSRVEELVITFSDLSLELR,< -0.25
13,LQAWPNSTSVFSLKSGGKSK,< -0.25
14,LQGSRQIPALREFTCPSTNC,< -0.25
15,KGVPIRASRACAGA,< -0.25
16,ALDR,< -0.25
17,VRSRMSPVVVDHPRSALQ,< -0.25
18,MVSSTYISRCTAVHVEIPGY,< -0.25
19,GPTDQRVTCRESSSSGYLAR,< -0.25
20,RNR,< -0.25
21,VGYFITMHALMKKGPLFFLF,< -0.25
22,PLGVCLTDGHQGTVDPAGLT,< -0.25
23,GYPGLWGSCLVTLFTRTDRT,< -0.25
24,YDSRSGSFSAPPLRRRTVTG,< -0.25
25,LACCYSSFLCQSTR,< -0.25

row,Substance,growth estimate
1,LSE,< -0.25
2,ERLRRKSNLLPGGKPHCLMI,< -0.25
3,NKFSKCPVKCARAG,< -0.25
4,RNSIYW,< -0.25
5,GLATLAGEL,< -0.25
6,DPHKHLTCSLPASSLNDQRG,< -0.25
7,YSSQSLRWNIVTVLDVEIHS,< -0.25
8,HRSMIYLRRPMSRGAPCAYG,< -0.25
9,EDCKGR,< -0.25
10,VPYIQGLPTAA,< -0.25
11,ISHSYLIYSSAPALALQRPN,< -0.25
12,RGCLRI,< -0.25
13,ANLNESRCNCSQPPPSDSGQ,< -0.25
14,ALGNVNLIRSRRQAILHSCQ,-0.227
15,TYLPTTLQEQGHGRAPLLGS,< -0.25
16,ESVWHCGAA,< -0.25
17,CWFSVAWGAVGGHRFSQRH,< -0.25
18,YRVLERSG,< -0.25
19,ESLDNGDGIPRGLSREIG,< -0.25
20,LDNQYLRIVSWVTVSTSTVH,< -0.25
21,QDELEFWS,< -0.25
22,PSGRR,< -0.25
23,AVQIRTSARSSSNY,< -0.25
24,GFWVAMRLKGPMQN,< -0.25
25,AVTPIIENGREKFLWNTGRQ,< -0.25

row,Substance,growth estimate
1,AQSKGFCGALVFASKQVARV,< -0.25
2,RLGGQRAIPTGSVAPTVYA,< -0.25
3,RGGFSSEHKGQ,< -0.25
4,SLPFHSRDPFKDTDWGRASI,< -0.25
5,IYYTQSDPQLPSTQGPR,< -0.25
6,FEDAVEASTWKVCTTCTQ,< -0.25
7,LLLPSYLFS,< -0.25
8,VPKSECGHVVQRFGRFWQ,< -0.25
9,VLPLSYGLENGNIYEWHWVS,< -0.25
10,LCRGLLGWNVEAAMAWSVRS,< -0.25
11,GFCGPDVLGSSRCTELHLLR,< -0.25
12,GRGYSLGVRSRI,< -0.25
13,TGTADSQPHVR,< -0.25
14,GLDYVSSRLQSGP,< -0.25
15,EGRVALRIRVGIQNRSRVSV,< -0.25
16,GLV,< -0.25
17,VETVDSRSEALRNTKRASHV,< -0.25
18,RIMNRSNALCR,< -0.25
19,LRIPSASRKLLVCVFACAGP,-0.216
20,TEDCSRR,< -0.25
21,VPSRGAGGPMGCDNGRATFL,< -0.25
22,GPAPRDMHLRYHRRLQGRYG,< -0.25
23,NGEREGMWQRVNNYESKGFD,< -0.253
24,SDGLIVSY,< -0.25
25,LVRAGCECPPCTLWRFTVAY,< -0.25

# A few values from above.
# For growth estimate, GFCGPDVLGSSRCTELHLLR has < -0.25
# For growth estimate, VPYIQGLPTAA has < -0.25
# For growth estimate, YDSRSGSFSAPPLRRRTVTG has < -0.25
# For growth estimate, MVSSTYISRCTAVHVEIPGY has < -0.25
# For growth estimate, IALVTGS has -0.25
# For growth estimate, YRVLERSG has < -0.25

# The list continues:

row,Substance,growth estimate
1,LTDITPAHRVRSQALASRGN,< -0.25
2,QGDDYCTNRVVRI,< -0.25
3,DYAA,-0.189
4,YWEKQRRRPRAGEPGVADLR,< -0.25
5,PYCAGVVYDLTLEWAIPCHQ,< -0.25
6,TERCAWVGGCGCRKCRIANP,< -0.25
7,GHVWTTAYESATI,-0.153
8,IVYVSSGEVGRWSWQADDTF,< -0.25
9,HISWRLLQHRYAR,< -0.25
10,DKRETRRQDTATVRTPRRIP,< -0.25
11,VYGDGTHQS,< -0.25
12,NSHPEKTSNSVQRLRAFLPR,< -0.25
13,LGSTSGHKRQGSDASTEFMR,< -0.25
14,GLHTSTHPDD,< -0.25
15,TRILGKCVKCHRG,-0.243
16,DLCWSGSDSRSSYYR,< -0.25
17,VAGVSHTN,< -0.25
18,IKYVARGPQGDWGSLTCYNA,-0.245
19,NPTRRTYF,-0.22
20,VNSLR,< -0.25
21,VVVSRVPLLLEFAGSH,< -0.25
22,VPLTWFVPMECKR,< -0.25
23,QLPSYKTPCDTVASYPASAG,< -0.25
24,QAIFTCTNARSPEPAKGKPS,< -0.25
25,PCDAADPSGNLGFLLAHIGL,< -0.25

row,Substance,growth estimate
1,SIRVGVAPHFI,< -0.25
2,RGD,< -0.25
3,LRSGGQGTHHSPGRWLKGRV,< -0.25
4,PLRDKWPPWESGDCSHGARA,< -0.25
5,SKNLVPL,< -0.25
6,VPATDTAEVCGTGVRG,< -0.25
7,YRLRPSYFLSRLTVASTHVS,< -0.25
8,PSGA,< -0.25
9,ALWVSGLNAHGVCLPAWITG,< -0.25
10,SRGWQSCGIILAGFCCSSAA,< -0.25
11,GPKYKVWLYMGKAGSVSNEA,< -0.25
12,LQAPT,< -0.25
13,GTAVAYWIDRYTGKWPRVIK,< -0.25
14,SSWLLDQVSTLRGVGIFVVV,< -0.25
15,YRPDQYDMIRFVSERVRQ,< -0.25
16,GEMGINILRRLLGHRMRTNT,< -0.25
17,VHWRSRGMKKETLILGSVAY,< -0.25
18,TVNVGRL,< -0.25
19,LRGGRPVSTRYVVYTGDRLA,< -0.25
20,DRGWSLVAIA,< -0.25
21,PRLDGTFAESLEF,< -0.25
22,CLSPRWE,< -0.25
23,RGIKRAASRVSVRWDV,< -0.25
24,NRQYFQNSGVMRGVLSALYT,0.559
25,RRMFIYPATHRLSTRGGRHS,-0.245

# A run of entries taken from the entries so far, as a working copy:
row,Substance,growth estimate
16,GEMGINILRRLLGHRMRTNT,< -0.25
17,VHWRSRGMKKETLILGSVAY,< -0.25

# Following part:

row,Substance,growth estimate
1,SGSEWPPPLGSYAFPQHRWA,-0.243
2,QRSNRLGHLRLPNTPKGRTP,< -0.25
3,VSNGWRGWTSIAKGSLSYCL,< -0.25
4,NDIDKGL,< -0.25
5,VRRSRVTLHLLNAPCNVPVR,< -0.25
6,HVRAPGCLLSARKSPQSTQA,< -0.25
7,NMSLHGCTIIWSLRIALSRV,< -0.25
8,KRFGNWTTS,< -0.25
9,SAAMELGARKGPTCELSSMA,< -0.25
10,YPWLFRRPSRRHARIQRD,< -0.25
11,YRVR,< -0.25
12,MLPGKCEQQPKSYHPRHCWP,< -0.25
13,WDHLQRPGLDSESREVSDHR,< -0.25
14,HAIQ,< -0.25
15,GFCDSPMT,< -0.25
16,RGSCGGDVM,< -0.25
17,LDAT,< -0.25
18,LDRGCVDISV,< -0.25
19,EVQGK,< -0.25
20,PVSRSTLS,< -0.25
21,DLWFARTGLLRALRSGERSK,< -0.25
22,GLRCGLGFESQNPQSKNQPG,< -0.25
23,YNG,-0.243 ± 0.0093
24,CPREYLSNYWSECMRVGE,< -0.25
25,KVELDTGSLTITDGHAVTAE,< -0.25

row,Substance,growth estimate
1,RHQLYPCGKFTDTGQSNALP,< -0.25
2,SRRSKTFYRLEALNTDQSTL,< -0.25
3,SCKEIAKDCSLTPSSLCAHV,< -0.25
4,PSGEIESRGV,< -0.25
5,WGGTCVREIVGHEGTRHLPR,-0.25
6,PWILKSVQCVYREK,< -0.25
7,GLDFSRRGLPSS,< -0.25
8,VSRSLATGQVRE,< -0.25
9,NMTMRVSHGSVDKLLIPLGS,-0.25
10,NARGYYRQENRAGGMTHQPQ,< -0.25
11,GSRLTMTPFVVRLPQCWGIG,< -0.25
12,RSDTHMGSSGIRIA,< -0.25
13,HYQRLANHAEGAA,< -0.25
14,LLAD,< -0.25
15,SVGIARARYRVRRVTSRKWY,< -0.25
16,HLNSAQLHGVWVRASKSFVY,< -0.25
17,VAIGLNSRLLLAYKRKPLKE,< -0.25
18,PGVVG,< -0.25
19,STAHIRSDYPTMAAIF,< -0.25
20,FESDPRVDPTLLRCSRRAFS,< -0.25
21,NHLAPRG,< -0.25
